In patent publication US20130096054A1, “LATENT HUMAN IMMUNODEFICIENCY VIRUS REACTIVIATION” (priority 2010, published 2013):
At least one structure is not confirmed: it was looked up by name or label, or the drawing left a doubt.

Tested on: latently HIV-1 infected CA5 T cells
Settings: pretreatment with increasing concentrations, then sub-optimal HRF
Description: CA5 T cells were pretreated with increasing concentrations of dactinomycin (DM) (FIG. 11A), the DNA intercalator daunorubicin (DR) (FIG. 11B), or the transcription inhibitors DRB (FIG. 11 C) and α-amanitin (FIG. 11D) (concentrations indicated). The cells were then left unstimulated (white circles) or activated with a sub-optimal concentration of HRF (black circles). Reactivation levels were determined as the percentage of GFP-positive cells 24 hours after stimulation. Viability of the cells correlates with the size of the symbol (size range adjusted to 5-95%).
Infection levels in the cell cultures were monitored by flow cytometric analysis of EGFP expression. Flow cytometric analysis was performed on a GUAVA EasyCyte (Millipore; Billerica, Mass.), or a LSRII (Becton & Dickinson; Franklin Lakes, N.J.).
Bacteria from various sources were isolated on TSA II agar plates containing 5% sheep blood. Bacterial isolates were then grown in RPMI 1640 medium supplemented with 10% FBS. After two days of incubation at 37° C. bacteria were pelleted and resuspended in RPMI medium to an optical density (OD600) of 8, aliquoted and frozen at −80° C. […] HRF activity was determined by its ability to reactivate latent HIV-1 infection in CA5 cells. […]
Infection levels in the cell cultures were monitored by flow cytometric (FCM) analysis of GFP expression. […]

`COc1cc(NS(C)(=O)=O)ccc1Nc1c2ccccc2nc2ccccc12` [amsacrine] was tested, and the “priming effect on HIV-1 reactivation by sub-optimal dose of HRF” value was “not reproduced”.
